# Library screen at single concentrations

Sequences of proteins named here, by UniProt entry; tags and fusion partners are left off. Residues count along the entry.
UniProt Q8IDJ8, 1-583: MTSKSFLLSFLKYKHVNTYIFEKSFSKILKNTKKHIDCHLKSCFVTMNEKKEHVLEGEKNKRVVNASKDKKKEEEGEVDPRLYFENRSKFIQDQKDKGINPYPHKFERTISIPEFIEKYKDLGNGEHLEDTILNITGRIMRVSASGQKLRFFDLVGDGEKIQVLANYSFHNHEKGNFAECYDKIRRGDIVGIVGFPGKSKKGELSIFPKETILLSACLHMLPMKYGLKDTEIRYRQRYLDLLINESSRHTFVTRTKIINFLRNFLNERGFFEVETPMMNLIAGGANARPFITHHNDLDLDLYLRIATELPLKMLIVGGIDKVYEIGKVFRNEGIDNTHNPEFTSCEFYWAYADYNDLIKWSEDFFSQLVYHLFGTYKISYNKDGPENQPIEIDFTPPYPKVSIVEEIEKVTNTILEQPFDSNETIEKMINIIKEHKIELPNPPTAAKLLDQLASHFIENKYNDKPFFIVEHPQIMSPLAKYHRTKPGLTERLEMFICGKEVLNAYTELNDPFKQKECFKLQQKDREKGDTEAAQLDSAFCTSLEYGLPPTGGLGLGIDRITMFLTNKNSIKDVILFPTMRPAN

The filed quantity is “Percent Effect” (%). How 0% and 100% were set is not recorded. Most values in the screen are low, and negative values occur. Compounds were drawn at random from those tested, without regard to their results.

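Enzyme assay of the cytosolic lysyl-tRNA synthetase in 384-well plates, read by luminescence. Target: Lysine-tRNA ligase, Plasmodium falciparum 3D7 (UniProt Q8IDJ8). Compounds at 30 µM. Higher reads as stronger inhibition, judged from the few compounds that gave an IC50. Size under these conditions: about 69,000 compounds, about 49 of them at 50% or above in at least one test.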

For CNC(=O)C1Cn2ccnc2C2(CCN(Cc3cccs3)CC2)O1 (centres unmarked) the result was -0.4254%. For O=C(c1cncs1)N1CCCC1c1ccn[nH]1 (centres unmarked) the result was -0.8205%. For Oc1cc(C2CCCN(Cc3cccs3)C2)nc(-c2ccccn2)n1 (centres unmarked) the result was 1.404%. O=C1CC(NCc2cnc(C3CCCCC3)nc2)CN1c1ccccc1 (centres unmarked) read 1.611%.

O=C(NCc1nn(-c2ccccc2)c2c1CCC2)NC1CC1 gave 0.9612%. COCCc1noc(CN2C(=O)OC[C@@H]2C(C)C)n1 read 6.157%. Cc1cc(Nc2cnccn2)cc(C2CCCN2)n1 (centres unmarked) read -2.344%. Cc1cccnc1CNC(=O)N(CCCO)C1CCc2ccccc21 (centres unmarked) read -0.1968%.

For Cc1ccc(C)c(Oc2ccc(CNC(=O)C3CCS(=O)(=O)C3)cn2)c1 (centres unmarked) the result was 1.707%. Result for CCN(CC1COc2ccccc2O1)C(=O)CCn1cncn1 (centres unmarked) was 0.8797%. O=S(=O)(Nc1ncccc1F)c1cc(Cl)cc2c1OCC2 gave 4.579%. For Cc1cc2cccc(C(=O)N3CCOC4(CNCCOC4)C3)c2o1 (centres unmarked) the result was -8.003%.

For COCc1ncc(CN2CCC(Oc3ccc(OC)cc3)CC2)cn1 the result was 3.196%. With COC[C@]12COC[C@H]1CN(C(=O)c1ccc(F)cc1C)C2 the screen gave 0.9935%. Result for COC1COC2(CCN(Cc3cccc(C#N)c3)CC2)C1 (centres unmarked) was 2.216%. Result for CN(CC(=O)N1CCN(c2ccccc2F)CC1)c1cnccn1 was 1.893%.

Cc1nc2ccnn2c(C)c1CCC(=O)N1CCC(C(N)=O)CC1 read 0.7421%. With CCN(CC)c1nc2ccsc2c(=O)n1CCC(=O)NCc1cccs1 the screen gave 3.732%. CCCc1cc(N2CCC(NCCc3ccc(O)cc3)CC2)nc(C)n1 gave 1.79%. CCS(=O)(=O)N1CCC2(CN(Cc3ccc(C)o3)C2)C1 gave 1.612%.

For COc1cc(C)sc1C(=O)N1CCCCC1c1ccccn1 (centres unmarked) the result was 4.474%. With Cc1cccc(N(CCC(N)=O)C(=O)c2ccnc(C)n2)c1 the screen gave 5.979%. For COCCNc1cc(-c2ccccc2CCN)c2cc[nH]c2n1 the result was -4.238%. Cc1cccc(NC(=O)NCC2(N3CCOCC3)CCSC2)c1 (centres unmarked) read 3.103%.

For CNc1cnc(CC2COCCN(CCOc3ccccc3)C2)cn1 (centres unmarked) the result was 0.6518%. Cn1c(NCCN2CCCCCC2)c(C#N)c(=O)n(C)c1=O gave 5.658%. For CC(C)Cn1ccc2c(NC(=O)c3n[nH]c4c3CCC4)cccc21 the result was 8.695%. With CN(C)C(CNC(=O)NCc1cc[nH]n1)c1ccco1 (centres unmarked) the screen gave 2.058%.

O=C(NCCc1ccn(-c2ccc(F)cc2)n1)C1CCCO1 (centres unmarked) gave 4.709%. For Cc1ccc(CN2C[C@@H]3[C@@H](C(=O)N4CCCC4)CCS(=O)(=O)[C@@H]3C2)cc1 the result was 5.787%. Oc1ccc2oc3c(c2c1CN1CCOCC1)CCCC3 read 5.393%. For N#Cc1ccccc1CN(CCO)Cc1ccsc1 the result was 0.7664%.

Result for Cc1ccc(C(NC(=O)CC2CCN(C(C)C)CC2)C(=O)O)cc1 (centres unmarked) was -3.03%. NC(=O)C(NC(=O)c1ccc(NC2CC2)nc1)c1ccccc1 (centres unmarked) read 4.498%. With Cc1cccc(CN2Cc3ncn(C)c3C(COCC(=O)N(C)C)C2)n1 (centres unmarked) the screen gave 1.69%. CCOC(=O)CN(C)C1CCc2ccccc21 (centres unmarked) read -3.113%.

CS(=O)(=O)NCCC1CCCCN1C(=O)NCc1ccccn1 (centres unmarked) gave -1.291%. Result for COC(=O)C(C)(C)NC(=O)C1CC(=O)N(CC2CC2)C1 (centres unmarked) was -14.01%. CCc1csc(CNC2CCN(Cc3ccccc3)C2)n1 (centres unmarked) read 3.479%.

The last 3 entries again:

Compound,effect
CS(=O)(=O)NCCC1CCCCN1C(=O)NCc1ccccn1 (centres unmarked),-1.291%
COC(=O)C(C)(C)NC(=O)C1CC(=O)N(CC2CC2)C1 (centres unmarked),-14.01%
CCc1csc(CNC2CCN(Cc3ccccc3)C2)n1 (centres unmarked),3.479%

Data taken from ChEMBL document CHEMBL3988442, “University of Dundee, Small-Polar-MMV Screening Library” (2021).